“Also recorded” adds a separate entry of the source. Not every detail of the peptide structures is certain; ends, links or a residue may be inferred. Where a SMILES comes first, the peptide text is derived from it.
How the values were obtained:
zebrafish (Danio rerio) = assay: Novel Tank (NT) test; format: in vivo
Procedure: The tested substances were injected into the zebrafish intraperitoneally using an insulin syringe (0.5 ml, 30 g) 10 minutes before the test (15 min before for ketamine only, according to the literature data). The saline solution (0.9% NaCl) was used as a solvent. Anesthesia and immobilization of the animals were achieved by placing them in water at a temperature of 10° C. Control group fish received intraperitoneal injections of an equivalent volume of solvent, also after going through a pre-cooling procedure.
A base, back, and side walls of the aquarium were made of matte black plastic; the front panel (shorter wall) was made of transparent Plexiglas.
The Novel Tank (NT) test was performed as previously described (Maximino et al. (2013). Behavioral and neurochemical changes in the zebrafish leopard strain. G2B. 12(5): 576-582). A video recording (background shooting) was started 20-30 seconds before the zebrafish were placed in the test aquarium. The experimental zebrafish was placed in the tank using a net. The recording was being conducted for 5 minutes. The test was carried out using EthoVision XT software package (Noldus, Wageningen, Netherlands). The software registered the distance covered by the animal, its speed, the number of visits to the three conventional zones of the aquarium: “bottom,” “center,” and […] (lower, middle, and upper thirds of the aquarium, respectively), the time spent in these zones, and the latency of a visit to the middle and to the surface of the aquarium.

Sprague-Dawley rats = assay: Novelty Suppressed Feeding test (NSF); format: in vivo
mGluR5 (GRM5) = assay: HEK 293 cells mGluR5-luciferase reporter assay (β-arrestin2 recruitment); format: cell-based, human; conditions: for reduction of CHPG-induced mGluR5 activation / luciferase signal, Part 2: 20 μM; for reduction of CHPG-induced mGluR5 activation: + 1 mM CHPG; for luciferase signal, Part 2 / inhibitory effect on CHPG-induced mGluR5 activation at higher doses: + CHPG; for inhibitory effect on CHPG-induced mGluR5 activation at higher doses: 100 μM and 200 μM vs 20 μM; for co-administration with SIB 1757: 200 μM peptide + SIB 1757 10 μM + CHPG; for mGluR5 activity in the absence of CHPG: 20 and 200 μM, peptide alone; for dose that reduced the level of CHPG-induced mGluR5 activation: tested 0.2, 2 and 20 μM, only the highest dose active
Excerpt: The methodology was previously described by Kroeze (Kroeze et al. (2015). PRESTO-Tango as an open-source resource for interrogation of the druggable human GPCRome. Nat. Struct. Mol. Biol. 22(5): 362) and the principle is illustrated in FIG. 19. Briefly, the cells of HEK293 cell line are transfected with 3 types of plasmids:
Plasmid 1: encodes fusion GRMS-tTA protein. The linker between GRMS and tTA is sensitive to TEV-protease (www.addgene.org/66390/).
Plasmid 2: encodes β-arrestin2/TEV-protease fusion protein (www.addgene.org/107245/).
Plasmid 3: luciferase tTA reporter (www.addgene.org/64127/).
Sufficient quantities of fusion proteins were produced during 24 hours after transfection. mGluR5 (GRM5) activation by a selective agonist CHPG (SEQ ID NO: 18) (1) leads to recruiting of β-arrestin2/TEV-protease fusion protein (2), that cleaves the linker between GRM5 and tTA (3). Released tTA transcription factor (4) binds with its consensus sites in tTA luciferase reporter plasmid (5) that results in activation of luciferase expression. The activity of luciferase can be used to estimate the activity of mGluR5, and application of negative allosteric modulators of mGluR5 should lead to a dose-dependent decrease in luciferase activity in this system (FIG. 19).
Sufficient quantities of the plasmids were produced using standard applications before the experiment. HEK293 cells were co-transfected with three plasmids using polyethylenimine (PEI, 408727, Sigma-Aldrich, USA) 24 hours prior to agonists application. Transfected cells were treated with agonists/antagonists and incubated overnight (16 hours). Antagonists were introduced 10 minutes prior to agonists. Luciferase test was performed using Promega™ Luciferase Assay Systems Kit (PR-E1500, Promega, USA) according to the manufacturer's protocol.
CHPG—orthosteric selective mGlu5 receptor agonist (HB0033, HelloBio, USA). CHPG (SEQ ID NO: 18) was administered at a dose 1 mM according to the literature (Chen et al. (2012). Protective effects of mGluR5 positive modulators against traumatic neuronal injury through PKC-dependent activation of MEK/ERK pathway. Neurochem. Res. 37(5): 983-990.; Loane et al. (2009). Activation of metabotropic glutamate receptor 5 modulates microglial reactivity and neurotoxicity by inhibiting NADPH oxidase. J. Biol. Chem. 284(23): 15629-15639).
SIB 1757—selective, noncompetitive antagonist of mGluR5 (S9186, Sigma-Aldrich, USA). SIB 1757 was administered at a dose of 10 μM (according to the literature: Liu et al. (2014). Aldehyde dehydrogenase 1 defines and protects a nigrostriatal dopaminergic neuron subpopulation. J. Clin. Invest. 124(7): 3032-3046) and 100 μM (excessive dose).
Peptides RAHE (SEQ ID NO: 3) and KEDV (SEQ ID NO: 4)—potential negative allosteric modulators of mGluR5. […] Doses 2 μM and 20 μM are also physiologically relevant.

Wistar rats [1] = format: in vivo; conditions: for spontaneous motor activity: 0.1 mg/kg i.n.; for duration of the stimulating effect: intranasal administration
Wistar rats [2] = assay: Dexamethasone test (DXMT), serum corticosterone, AFS model; format: in vivo; conditions: 5 mg/kg chronic intranasal, after AFS
Procedure: Stimulation was performed automatically using a software randomizer.
Evaluation of the stress-evoked release of glucocorticoid hormones (corticosterone, an analog of cortisol in humans) and its suppression by the introduction of synthetic glucocorticosteroid was performed on the 9-10th day after the development of LH in a two-day dexamethasone test according to the scheme, taking into account the specificity of the circadian rhythm of HPA axis function in rats (Zhukov (1993). The dexamethasone suppression test in genetically different rats exposed to inescapable and escapable electric shocks. Psychoneuroendocrinology, 18(7), 467-474.].
On the first day of the test (DXMT1) at 10:00 AM, animals were injected (i.p.) with saline, then at 04:00 PM on the same day peripheral blood samples were taken to determine the basal level of the hormone, which caused stress, and 30 minutes after taking the rat from the cage and receiving initial sample, re-taken blood to measure hormone stress level.
To study the sensitivity of the HPA system to feedback signals, rats were injected with dexamethasone (DXM, 10 μg/kg, i.p.) the next day (DXMT2) at 10 AM. The procedure for taking blood from the tail vein was repeated after 6 and 6.5 hours. The corticosterone content was determined by enzyme-linked immunosorbent assay with reagent kits “Corticosterone-ELISA” (“Hema”, RF) in two parallel samples.

Kcna1 mRNA = assay: Real-time PCR, frontal cortex: Kcna1; format: in vivo, rats; conditions: 1 mg/kg i.n., 2 h after treatment

Question: For `CC(C)[C@H](NC(=O)[C@H](CC(=O)O)NC(=O)[C@H](CCC(=O)O)NC(=O)[C@@H](N)CCCCN)C(=O)O` [KEDV] (H-KEDV-OH; N-terminus and C-terminus assumed), which “behavior in NT test” value (zebrafish (Danio rerio); 0.5 mg/kg i.p.) is on record?
Answer: did not change the behavior

Question: And the “distance travelled (locomotor activity)” value (zebrafish (Danio rerio); 1 mg/kg i.p.)?
Answer: increased locomotor activity

Question: And the “latency to the top” value (zebrafish (Danio rerio); 1 mg/kg i.p.)?
Answer: decreased latency to the top; also recorded: increased latency to the top

Question: What about the “time spent in the upper ⅔ of the aquarium” value (zebrafish (Danio rerio); 1 mg/kg i.p.) of the same molecule?
Answer: increased time spent in the upper ⅔ of the aquarium

Question: And the “behavior in NT test” value (zebrafish (Danio rerio); 10 mg/kg i.p.)?
Answer: did not alter the behavior

Question: And the total distance traveled (Sprague-Dawley rats; 0.1 mg/kg i.n.)?
Answer: 3392±211.3 cm

Question: And the total distance traveled (Sprague-Dawley rats; 0.3 mg/kg i.n.)?
Answer: 3608±208.6 cm

Question: What about the “reduction of CHPG-induced mGluR5 activation” value (mGluR5 (GRM5)) of the same molecule?
Answer: 65%

Question: And the “luciferase signal, Part 2” value (mGluR5 (GRM5))?
Answer: significant decrease of luciferase signal

Question: What about the “inhibitory effect on CHPG-induced mGluR5 activation at higher doses” value (mGluR5 (GRM5)) of the same molecule?
Answer: did not influence the strength of their inhibitory effect

Question: And the “co-administration with SIB 1757” value (mGluR5 (GRM5))?
Answer: did not alter the inhibitory effect produced by SIB 1757

Question: What about the “mGluR5 activity in the absence of CHPG” value (mGluR5 (GRM5)) of the same molecule?
Answer: did not influence mGluR5 activity

Question: What about the “dose that reduced the level of CHPG-induced mGluR5 activation” value (mGluR5 (GRM5)) of the same molecule?
Answer: 20 µM

Question: And the spontaneous motor activity (Wistar rats [1])?
Answer: did not significantly affect

Question: And the “motor activity in the intervals of 3-30, 30-60, 60-90 minutes” value (Wistar rats [1]; 1 mg/kg i.n.)?
Answer: statistically significant increases of motor activity

Question: What about the “duration of the stimulating effect” value (Wistar rats [1]) of the same molecule?
Answer: about 90 minutes

Question: What about the “CS concentration in response to DXMT” value (Wistar rats [2]) of the same molecule?
Answer: significant decrease in CS concentration

Question: What about the “expression of Kcna1 gene” value (Kcna1 mRNA) of the same molecule?
Answer: statistically significant decrease

Question: With `C[C@H](NC(=O)[C@@H](N)CCCNC(=N)N)C(=O)N[C@@H](Cc1c[nH]cn1)C(=O)N[C@@H](CCC(=O)O)C(=O)O` [RAHE] (H-RAHE-OH; N-terminus and C-terminus assumed) as the molecule, how does the “behavior in NT test” value (zebrafish (Danio rerio); 0.5 mg/kg i.p.) read?
Answer: did not show any behavioral effects

Question: What about the “distance travelled (locomotor activity)” value (zebrafish (Danio rerio); 1 mg/kg i.p.) of the same molecule?
Answer: increment of distance travelled

Question: And the “time spent at the top of NT” value (zebrafish (Danio rerio); 1 mg/kg i.p.)?
Answer: trend towards increased time spent at the top

Question: What about the “time spent in the upper ⅔ of the aquarium” value (zebrafish (Danio rerio); 1 mg/kg i.p.) of the same molecule?
Answer: increment

Question: And the “distance travelled (locomotor activity)” value (zebrafish (Danio rerio); 10 mg/kg i.p.)?
Answer: decreased distance travelled

Question: What about the “time spent at the top of aquarium” value (zebrafish (Danio rerio); 10 mg/kg i.p.) of the same molecule?
Answer: significant decrease

Question: What about the “time spent at top+middle zones” value (zebrafish (Danio rerio); 10 mg/kg i.p.) of the same molecule?
Answer: significant decrease

Question: And the velocity (zebrafish (Danio rerio); 10 mg/kg i.p.)?
Answer: decreased

Question: What about the total distance traveled (Sprague-Dawley rats; 0.1 mg/kg i.n.) of the same molecule?
Answer: 3490±212.3 cm

Question: What about the “reduction of CHPG-induced mGluR5 activation” value (mGluR5 (GRM5)) of the same molecule?
Answer: 27%

Question: And the “luciferase signal, Part 2” value (mGluR5 (GRM5))?
Answer: significant decrease of luciferase signal

Question: What about the “inhibitory effect on CHPG-induced mGluR5 activation at higher doses” value (mGluR5 (GRM5)) of the same molecule?
Answer: did not influence the strength of their inhibitory effect

Question: And the “co-administration with SIB 1757” value (mGluR5 (GRM5))?
Answer: did not alter the inhibitory effect produced by SIB 1757

Question: What about the “mGluR5 activity in the absence of CHPG” value (mGluR5 (GRM5)) of the same molecule?
Answer: did not influence mGluR5 activity

Question: What about the “dose that reduced the level of CHPG-induced mGluR5 activation” value (mGluR5 (GRM5)) of the same molecule?
Answer: 20 µM

Question: What about the spontaneous motor activity (Wistar rats [1]) of the same molecule?
Answer: did not significantly affect

Question: And the “motor activity in the 90-120 and 150-180-minute intervals” value (Wistar rats [1]; 1 mg/kg i.n.)?
Answer: Differences from the control values

Question: What about the “motor activity in the intervals of 3-30, 30-60, 60-90 minutes” value (Wistar rats [1]; 1 mg/kg i.n.) of the same molecule?
Answer: statistically significant increases of motor activity

Question: What about the “duration of the stimulating effect” value (Wistar rats [1]) of the same molecule?
Answer: ~180 min

Question: What about the “CS concentration in response to DXMT” value (Wistar rats [2]) of the same molecule?
Answer: significant decrease in CS concentration

Question: What about the “expression of Kcna1 gene” value (Kcna1 mRNA) of the same molecule?
Answer: statistically significant decrease

Reference: patent publication US20230140798A1, “SYNTHETIC PEPTIDES DIRECTED AGAINST THE METABOTROPIC GLUTAMATE RECEPTOR 5” (Lactocore, Inc., priority 2020, published 2023)
